The name of at least one read-out is uncertain.
Molecular target: T1, AAK1 (Homo sapiens, UniProt Q2M2I8)
T1 construct: purchased Ambit Kinomescan (contract screening)
Test: KINOMEscan Max
Format: binding
Conditions: 1 μM
Experimental: Kinase panel profiling was performed at Ambit Kinomescan (http://www.ambitbio.com/technology/) using the “KINOMEscan™ Max” assay platform, a high-throughput method for screening small molecule compounds against large numbers of human kinases. KINOMEscan™ is based on a competition binding assay that quantitatively measures the ability of a compound to compete with an immobilized, active-site directed ligand. The assay is performed by combining three components: DNA-tagged kinase; immobilized ligand; and a test compound. The ability of the test compound to compete with the immobilized ligand is measured via quantitative PCR of the DNA tag. For a description of Ambit's assay protocol, see Fabian et al. A small molecule-kinase interaction map for clinical kinase inhibitors. Nat. Biotechnol. 23, 329-336 (2005).

Protein sequences, listed by entry. Tags and fused reporters are not part of them. Lines headed by an entry give the natural chain unless they say otherwise; changes in a name come on top.
UniProt Q2M2I8: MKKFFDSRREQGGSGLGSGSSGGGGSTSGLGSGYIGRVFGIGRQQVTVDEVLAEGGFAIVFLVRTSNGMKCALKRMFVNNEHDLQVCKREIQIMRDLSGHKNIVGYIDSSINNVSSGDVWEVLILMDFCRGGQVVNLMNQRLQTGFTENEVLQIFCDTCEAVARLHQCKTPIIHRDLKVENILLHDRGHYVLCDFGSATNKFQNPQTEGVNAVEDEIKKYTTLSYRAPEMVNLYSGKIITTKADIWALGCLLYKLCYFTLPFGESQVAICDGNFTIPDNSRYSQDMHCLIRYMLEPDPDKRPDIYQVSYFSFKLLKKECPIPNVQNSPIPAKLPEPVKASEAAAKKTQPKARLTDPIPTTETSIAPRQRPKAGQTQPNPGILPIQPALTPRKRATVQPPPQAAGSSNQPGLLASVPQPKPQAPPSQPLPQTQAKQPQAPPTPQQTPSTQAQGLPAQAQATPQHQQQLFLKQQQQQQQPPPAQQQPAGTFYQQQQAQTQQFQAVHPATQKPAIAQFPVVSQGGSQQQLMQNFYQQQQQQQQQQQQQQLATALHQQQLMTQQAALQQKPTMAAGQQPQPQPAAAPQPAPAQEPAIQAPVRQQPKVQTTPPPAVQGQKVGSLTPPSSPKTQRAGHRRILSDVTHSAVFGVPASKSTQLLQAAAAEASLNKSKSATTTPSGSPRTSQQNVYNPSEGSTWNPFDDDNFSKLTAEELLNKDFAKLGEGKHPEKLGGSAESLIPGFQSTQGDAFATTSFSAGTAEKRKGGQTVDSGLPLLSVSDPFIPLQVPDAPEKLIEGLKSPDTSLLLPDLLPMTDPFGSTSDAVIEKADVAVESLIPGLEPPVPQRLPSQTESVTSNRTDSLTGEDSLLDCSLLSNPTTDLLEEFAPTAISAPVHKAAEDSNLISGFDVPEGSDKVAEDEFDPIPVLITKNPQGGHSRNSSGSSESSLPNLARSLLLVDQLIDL

NCCCNc1nc2c(Br)c(Br)c(Br)c(Br)c2[nH]1 [Compound 11, N-(3-aminopropyl)-4,5,6,7-tetrabromo-1H-benzo[d]imidazol-2-amine]
% binding: 99%

Reference: patent US20110230481A2, “DERIVATIVES OF TETRABROMOBENZIMIDAZOLE, A PROCESS FOR THE PREPARATION THEREOF, A PHARMACEUTICAL COMPOSITION COMPRISING THE SAME, A METHOD OF USING THE SAME, A METHOD FOR MODULATING OR REGULATING SERINE/THREONINE KINASES, AND SERINE/THREONINE KINASES MODULATING AGENT” (SELVITA S.A., priority 2009, published 2011)
